Measurements as given in PMC9649702.
No constants are given. Whether binding was seen depends on the method and setting. Binding seen in cells or lysates may run through a third protein. Some entries that bind do so weakly or less than the wild type.

Protein sequences, listed by entry. Tags and fused reporters are not part of them. Lines headed by an entry give the natural chain unless they say otherwise; changes in a name come on top.
UniProt Q6IAA8: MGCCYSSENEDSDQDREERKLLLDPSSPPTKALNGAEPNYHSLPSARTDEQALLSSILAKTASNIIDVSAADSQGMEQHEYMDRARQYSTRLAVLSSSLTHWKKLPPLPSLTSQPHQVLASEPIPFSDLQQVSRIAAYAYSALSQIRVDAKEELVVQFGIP
UniProt Q8NFG4: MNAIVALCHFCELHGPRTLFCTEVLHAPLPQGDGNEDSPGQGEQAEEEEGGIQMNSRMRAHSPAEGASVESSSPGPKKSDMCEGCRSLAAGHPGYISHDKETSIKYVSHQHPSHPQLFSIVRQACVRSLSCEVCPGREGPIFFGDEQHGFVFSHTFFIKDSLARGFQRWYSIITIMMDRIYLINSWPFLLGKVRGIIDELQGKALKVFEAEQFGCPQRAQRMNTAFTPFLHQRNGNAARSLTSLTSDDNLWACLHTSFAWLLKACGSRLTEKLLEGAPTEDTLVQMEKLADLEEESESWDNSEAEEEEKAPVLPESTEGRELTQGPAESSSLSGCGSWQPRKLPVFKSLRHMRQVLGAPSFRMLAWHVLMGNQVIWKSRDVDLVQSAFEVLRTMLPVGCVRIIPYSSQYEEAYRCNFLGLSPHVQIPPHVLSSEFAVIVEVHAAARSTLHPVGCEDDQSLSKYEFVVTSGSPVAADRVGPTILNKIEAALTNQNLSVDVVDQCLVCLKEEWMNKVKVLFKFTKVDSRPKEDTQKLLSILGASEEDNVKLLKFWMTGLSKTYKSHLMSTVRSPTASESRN

Target: Lamtor1-GFP (UniProt Q6IAA8)
Test: co-IP; Lamtor1-GFP precipitated with GFP-Trap magnetic agarose beads (binding control beads beside it) from lysates of WT and TSC2 KO HEK293T cells, fed or amino-acid-starved for 1 or 3 h; DMSO, rapamycin (200 nM) or torin (1 uM) for 1 h before starvation; immunoblotting

With “FLCN:FNIP2 complex (endogenous) (from UniProt Q8NFG4 1-579; Q9P278 1-1114)” the binding was “binds”.
